Laboratory results: PubChem BioAssay AID1469 (National Center for Advancing Translational Sciences (NCATS), 2008)
Screen size: about 280,000 compounds; about 180 (0.064%) were called active. Inconclusive means that the source gave no clear call. Such entries were picked first, then a sample of the others. Calls follow the shape of the dose curve; as a rule, active = well fitted inhibition curve with a large enough effect; inconclusive = small, poorly fitted or top-dose-only effect, or effect the other way; inactive = flat fitted curve, though single readings scatter. Where the call is inconclusive, the potency comes from a doubtful curve fit.
Also: nearly all actives have a fitted effect of over 50% in size.
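For activity change, negative = inhibition in this document: plate controls were bound peptide for no effect and peptide without receptor for full effect.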
Potency is read from the fitted curve at half-maximal effect.

Protein sequences, listed by entry. Tags and fused reporters are not part of them. Lines headed by an entry give the natural chain unless they say otherwise; changes in a name come on top.
UniProt P10828: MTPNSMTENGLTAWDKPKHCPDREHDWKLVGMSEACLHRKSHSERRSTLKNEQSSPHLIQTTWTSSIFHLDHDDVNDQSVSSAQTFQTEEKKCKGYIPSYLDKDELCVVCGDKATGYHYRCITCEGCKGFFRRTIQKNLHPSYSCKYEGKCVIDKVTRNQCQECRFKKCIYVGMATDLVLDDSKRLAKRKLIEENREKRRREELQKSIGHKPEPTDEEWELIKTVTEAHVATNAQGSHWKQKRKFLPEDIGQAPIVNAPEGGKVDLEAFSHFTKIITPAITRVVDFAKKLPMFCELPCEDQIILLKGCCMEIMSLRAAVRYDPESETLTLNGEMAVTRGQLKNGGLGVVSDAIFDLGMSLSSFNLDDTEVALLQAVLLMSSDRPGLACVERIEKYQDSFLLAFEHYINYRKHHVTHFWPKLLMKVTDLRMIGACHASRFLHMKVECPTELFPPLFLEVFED

These compounds were tested against Thyroid hormone receptor beta (Homo sapiens) (UniProt P10828) (assay: qHTS for Inhibitors of the Interaction of Thyroid Hormone Receptor and Steroid Receptor Coregulator 2). Conditions: TRbeta-SRC2 peptide binding, fluorescence polarization, receptor liganded with 1 µM T3; series mostly up to 106 µM; activity change, negative = inhibition: at the top concentration.
Outline: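 Human TRb ligand-binding domain (0.6 uM) is mixed with 20 nM Texas Red SRC2 peptide and 1 uM T3; after compound addition and 5 hr at ambient temperature, polarization is measured and normalized to unbound and bound controls.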
In the case of COc1ccc([C@H]2Oc3cc(O)cc(O)c3C(=O)C2[C@@H]2C(=O)c3c(O)cc(O)cc3O[C@@H]2c2ccc(OC)cc2)cc1 (some centres not stated), the Potency is reported as inconclusive: 70.8 µM [activator, single point]. For CC(C)C(=O)Nc1nc2cc3c(cc2s1)OCO3, the “activity change, negative = inhibition” value was inactive: 3.36%. N#C/C(=C\c1coc2ccc(O)cc2c1=O)C(=O)Nc1nc2ccccc2s1 was tested, and the Potency was inconclusive: 12.6 µM [activator, full curve]. With CC(C)CCOc1ccc(C(=O)CCNC(C)C(=O)O)cc1 (configuration not stated) the Potency was inconclusive: 50.1 µM [inhibitor, partial curve]. In the case of CCOC(=O)Cc1c(C)c2ccc(N(CC)CC)cc2oc1=O, the Potency is reported as inconclusive: 0.708 µM [inhibitor, full curve]. For CCc1ccc2oc(C(=O)Nc3cccc(C(F)(F)F)c3)cc(=O)c2c1, the Potency was inconclusive: 17.8 µM [inhibitor, single point]. CCN(CC)c1ccc(N=Cc2ccc([N+](=O)[O-])o2)cc1 was tested, and the Potency was inconclusive: 35.5 µM [inhibitor, partial curve]. For O=C(O)Cc1ccc(N=Cc2c(O)ccc3ccccc23)cc1, the “activity change, negative = inhibition” value was inactive: 2.71%. CCOc1cccc(CNc2ccc(O)cc2)c1OCc1ccc(Cl)cc1Cl was tested, and the Potency was active: 25.1 µM. With Cc1nc2sc3c(NCc4ccco4)ncnc3c2c2c1COC(C)(C)C2 the Potency was inconclusive: 70.8 µM [inhibitor, single point]. For Cc1ccccc1CCNC(=O)c1ccc2c(c1)c(C)c(C)n2Cc1ccccc1, the Potency was inconclusive: 28.2 µM [activator, full curve, poor fit]. For Cc1nn(-c2ccccn2)c2c1C(=O)C(Br)CC2 (configuration not stated), the Potency was inconclusive: 28.2 µM [inhibitor, full curve]. With CCn1c(CSc2nnc(-c3ccncc3)n2CCOC)nc2cc(C(=O)O)ccc21 the Potency was active: 12.6 µM. For Cc1ccc2nc(-c3cc(NC(=O)c4ccc5c(c4)OCCO5)ccc3Cl)oc2c1, the Potency was inconclusive: 10 µM [inhibitor, partial curve, poor fit]. For O=C1CC(c2ccccc2)CC(O)=C1C=Nc1ccc(O)cc1 (configuration not stated), the Potency was inconclusive: 56.2 µM [inhibitor, partial curve, poor fit]. COC(=O)c1ccc(OCC2c3cc(OC)c(OC)cc3CCN2C(=O)COc2ccc(Cl)cc2)cc1 (configuration not stated) was tested, and the “activity change, negative = inhibition” value was inactive: -2.95%. For CCOc1ccc(S(=O)(=O)N(C(=O)c2ccco2)c2cc3sc(=O)oc3c3ccccc23)cc1, the “activity change, negative = inhibition” value was inactive: -9.99%. O=c1[nH]c2ccc(NCc3ccc(-c4ccc(Cl)cc4)o3)cc2[nH]1 was tested, and the Potency was inconclusive: 56.2 µM [activator, single point]. CC1=C/C(=N\OS(=O)(=O)c2ccccc2)C=CC1=O was tested, and the Potency was inconclusive: 50.1 µM [inhibitor, partial curve]. For Cc1cc(Br)ccc1-n1[nH]c(C)c(C=Nc2cccc3nsnc23)c1=O, the Potency was inconclusive: 50.1 µM [inhibitor, partial curve]. With CCC(CC)=N/N=C/c1c(O)n(CC)c2cc(C3=NNC(=O)CC3)ccc12 the Potency was inconclusive: 112 µM [inhibitor, partial curve, poor fit]. In the case of COc1cc2c(C#N)c(N3CCN(c4ccccc4OC)CC3)nc(N)c2c(N)n1, the Potency is reported as inconclusive: 3.55 µM [inhibitor, full curve, poor fit]. For CCCOC(=O)c1ccc(NC(=O)Oc2ccccc2)cc1, the Potency was inconclusive: 10 µM [inhibitor, partial curve]. With O=C1CCCC(O)=C1N=Nc1ccc(Cl)c(Cl)c1 the Potency was inconclusive: 44.7 µM [inhibitor, partial curve]. In the case of C=CCN(CC=C)C(=S)Nc1ccc2nsnc2c1, the “activity change, negative = inhibition” value is reported as inactive: -8.79%. In the case of O=Cc1ccccc1C=O, the Potency is reported as inconclusive: 44.7 µM [activator, partial curve]. For COc1ccccc1N1CCN(C(=O)CCc2nnc3n(C)c(=O)c4sccc4n23)CC1, the Potency was inconclusive: 22.4 µM [activator, single point]. In the case of CCCCCCc1ccc(C(=O)CCN(C)C)cc1, the Potency is reported as active: 15.8 µM. For CN(C)c1ccc2c(-c3ccccc3)c3ccc(=[N+](C)C)cc-3oc2c1, the Potency was active: 0.1 µM. For Cc1ccc(NC(=O)CSc2nc(C)c(Cc3ccccc3)c(=O)[nH]2)cc1C, the Potency was inconclusive: 7.94 µM [activator, single point]. In the case of O=C(N/N=C/c1cc2ccccc2nc1Cl)/C(=C/c1cccs1)NC(=O)c1ccccc1, the “activity change, negative = inhibition” value is reported as inactive: -7.93%. NC(=O)c1nsnc1-c1ccccc1O was tested, and the Potency was inconclusive: 56.2 µM [inhibitor, partial curve]. In the case of CC[N+](C)(CC)CCOC(=O)C1c2ccccc2Oc2ccccc21, the “activity change, negative = inhibition” value is reported as inactive: 0.23%. With COc1ccc(/C=N/NC(=O)c2ccc(F)cc2)cc1CN1CCc2cc(OC)c(OC)cc2C1C (configuration not stated) the “activity change, negative = inhibition” value was inactive: -4.86%. For COCCn1c(=NC(=O)/C=C/c2ccccc2Cl)sc2cc(NC(C)=O)ccc21, the Potency was inconclusive: 20 µM [inhibitor, single point]. Cc1nn(CC(=O)NCc2cccc(Br)c2)c(=O)c2c1sc1ccccc12 was tested, and the Potency was inconclusive: 28.2 µM [inhibitor, full curve, poor fit]. CCCOc1cc(N)ccc1C(=O)OCCN(CC)CC was tested, and the “activity change, negative = inhibition” value was inactive: -5.48% [at 53 µM]. CCCc1nc2c(=O)n(C)c(=O)nc-2n(C)n1 was tested, and the Potency was inconclusive: 1.58 µM [inhibitor, full curve]. O=C(/C=C/c1ccc(O)c(O)c1)c1ccc(S(=O)(=O)N2CCCCCC2)cc1 was tested, and the Potency was inconclusive: 35.5 µM [inhibitor, partial curve]. O=C(O)/C=C/C(=O)Nc1ccc(OC(F)(F)F)cc1Br was tested, and the Potency was active: 31.6 µM. With O=C(O)c1cc(O)c2c(c1)[C@H]([C@H]1c3cc(C(=O)O)cc(O)c3C(=O)c3c(O[C@@H]4OC(CO)C(O)C(O)C4O)cccc31)c1cccc(O[C@@H]3OC(CO)C(O)C(O)C3O)c1C2=O (some centres not stated) the Potency was inconclusive: 56.2 µM [inhibitor, partial curve, poor fit]. With C=CCn1c(NC(=O)c2ccccc2Cl)c(C#N)c2nc3ccccc3nc21 the Potency was inconclusive: 31.6 µM [inhibitor, full curve]. COc1ccc(NC2=C(NCCO)C(=O)c3ccccc3C2=O)cc1 was tested, and the Potency was inconclusive: 50.1 µM [inhibitor, single point]. With Cc1cc(-c2ccc(N=Nc3ccc4c(S(=O)(=O)O)cc(S(=O)(=O)O)c(N)c4c3O)c(C)c2)ccc1N=Nc1ccc2c(S(=O)(=O)O)cc(S(=O)(=O)O)c(N)c2c1O the Potency was active: 25.1 µM. In the case of CCOc1ccc(CNC(=O)Cn2nc(C)c3sc4ccccc4c3c2=O)cc1, the Potency is reported as inconclusive: 79.4 µM [inhibitor, single point]. With CC(C)c1ccc(N2C(=O)/C(=C/N(C)C)SC2=S)cc1 the Potency was inconclusive: 3.55 µM [activator, full curve]. With COc1cc(/C=C2\SC(=S)N(Nc3ncc(C(F)(F)F)cc3Cl)C2=O)ccc1O the Potency was inconclusive: 31.6 µM [activator, partial curve]. With CN(Cc1ccccc1)C(=O)CCNS(=O)(=O)c1ccc2c(c1)oc(=O)n2C the “activity change, negative = inhibition” value was inactive: -7.97%. With CN(C)c1ccc2c(O)cc(=O)n(C)c2c1 the Potency was inconclusive: 44.7 µM [inhibitor, partial curve]. In the case of COc1cc(OC)cc(C(=O)NC(=S)NNC(=O)Cc2cccs2)c1, the Potency is reported as inconclusive: 0.708 µM [activator, single point]. Cc1nc(NC(=O)c2ccco2)sc1-c1csc(Nc2ccc(Cl)cc2Cl)n1 was tested, and the Potency was inconclusive: 50.1 µM [activator, single point]. For CCN(CC)c1ccc(NC(=S)Nc2ccc(F)cc2)cc1, the Potency was inconclusive: 50.1 µM [inhibitor, single point]. CCOc1cc(/C=C2\C(=O)N(c3ccc(C(N)=O)cc3)N=C2C)ccc1OC(=O)c1cccs1 was tested, and the Potency was inconclusive: 3.55 µM [inhibitor, full curve, poor fit]. In the case of OC[C@@H]1[C@@H](c2ccc(Cl)cc2)C(c2ccccc2)=NN1c1ccccc1, the “activity change, negative = inhibition” value is reported as inactive: 1.7%. In the case of O=C1CNC(=S)N1c1nc(-c2ccccc2)cs1, the Potency is reported as inconclusive: 35.5 µM [inhibitor, partial curve]. For Oc1ccc(NC(=S)Nc2ccc(O)cc2)cc1, the Potency was inconclusive: 7.08 µM [inhibitor, full curve]. With Cc1ccc(SCc2cc(=O)n(C)[nH]2)cc1 the Potency was inconclusive: 50.1 µM [inhibitor, partial curve]. With COc1ccc2sc(/C=C/c3ccccc3O)[n+](C)c2c1 the Potency was inconclusive: 44.7 µM [activator, partial curve]. Cc1ccc(CNC(=O)CCCn2c(=O)c3ccccc3n(Cc3ccccc3C)c2=O)cc1 was tested, and the “activity change, negative = inhibition” value was inactive: -1.26%. In the case of Cn1nc(-c2ccc(Cl)cc2)nc2c(=O)n(C)c(=O)nc1-2, the Potency is reported as inconclusive: 0.708 µM [inhibitor, full curve, poor fit]. With Cc1cccc(/C=N/NC(=O)C(C)Nc2cccc3ccccc23)n1 (configuration not stated) the “activity change, negative = inhibition” value was inactive: 0.595%. CCc1cc(=O)oc2cc(C)c(CN3CCCC3)c(O)c12 was tested, and the Potency was inconclusive: 39.8 µM [activator, partial curve]. CCCC(=O)C1=C(c2ccccc2)C(C#N)(C#N)C(C#N)=C1N was tested, and the Potency was inconclusive: 50.1 µM [inhibitor, partial curve]. Cc1ccc(C(=O)NN2C(=O)CSC2=S)cc1 was tested, and the “activity change, negative = inhibition” value was inactive: 1.93%. O=C(Nc1cccc(Cl)c1)N(CCN1CCOCC1)Cc1cccc(Cl)c1 was tested, and the Potency was inconclusive: 0.0708 µM [inhibitor, full curve, poor fit]. O=C(Nc1ccc(NC(=O)c2ccco2)cc1)c1ccc2c(c1)OCCO2 was tested, and the Potency was inconclusive: 50.1 µM [activator, single point]. CCN(CC)c1ccc(N=Cc2ccccc2[N+](=O)[O-])cc1 was tested, and the Potency was inconclusive: 50.1 µM [inhibitor, partial curve].
